Source: patent US12180461B2 (priority 2018, dated 2024)
Where two headings read alike, the source gives them in different places. At least one structure is not confirmed: it was looked up by name or label, or the drawing left a doubt.

System: various strains of L. pneumophila
Assay type: cell-based
Conditions: Lasarus medium

Compound | number of strains tested that could grow (antibiotic 0.125 μg/ml) | number of strains tested that could grow (antibiotic 0.016 μg/ml)
C[C@H]1COc2c(N3CCN(C)CC3)c(F)cc3c(=O)c(C(=O)O)cn1c23 [Levofloxacin] | None | 
CO[C@H]1/C=C/O[C@@]2(C)Oc3c(C)c(O)c4c(O)c(c(/C=N/N5CCN(C)CC5)c(O)c4c3C2=O)NC(=O)/C(C)=C\C=C\[C@H](C)[C@H](O)[C@@H](C)[C@@H](O)[C@@H](C)[C@H](OC(C)=O)[C@@H]1C [Rifampacin] |  | None
